Laboratory results: patent US20080108894A1, “Methods and Systems of Analyzing Clinical Parameters and Methods of Producing Visual Images” (priority 2004, published 2008)

System: myocardium
Experiment: SI0 and A′ maps before and after contrast agent administration in a test dog
Assay type: in vivo
Procedure: FIG. 15 illustrates two examples of equatorial short axis SI0 (top) and A′ (bottom) maps. The ones on the left were generated in a test dog before contrast agent (CA) administration and those on the right were generated in the same dog 20 minutes after Gd(DTPA) administration. Average (+/−SD) SI0 values were 142+/−22 and 150+/−23 before and after CA administration, respectively. Note the great variability of SI0 values due to field inhomogeneity and regional differences in proton density. Average (+/−SD) A′ values were 1.9+/−0.01 and 1.9+/−0.02 before and after CA. […] No significant difference was found between SI0 values before (141.8±21.8) and 20 minutes after (150.4±22.6) CA administration. […] The parameter A′ (the parameter representing the accuracy of the 180° pulse), however, may in principle be influenced by the administration of a contrast agent, because paramagnetic agents alter the magnetic susceptibility of tissue. This may lead to local errors in the accuracy of the 180° pulse, unless the imager readjusts the 180° pulse for each use of the IR sequence. […] This is most likely due to the scanner's successful automatic recalibration of the 180° pulse. Thus, even if the susceptibility of the tissue in the imaged region of interest is affected by the presence of a contrast agent, the scanner corrects these slight changes by adjusting the 180° pulse, resulting in practically the same A′ values that were obtained in the absence of the contrast agent. Therefore, it was reasonable to fix the value of A′ to 1.9, and this constant number has been always used in the calculations.

O=C([O-])CN(CCN(CC(=O)[O-])CC(=O)O)CCN(CC(=O)[O-])CC(=O)O.[Gd+3] [Gd(DTPA)] was tested, and the “change in SI0 or A′ due to administration” value (before vs 20 minutes after Gd(DTPA)) was “No significant change”, the “Average A′ after CA administration” value (myocardium, 20 minutes after Gd(DTPA), before CA 1.9+/−0.01) was 1.9+/−0.02 and the “Average SI0 after CA administration” value (myocardium, 20 minutes after Gd(DTPA), before CA 142+/−22 (141.8±21.8)) was 150.4±22.6 and 150+/−23.

Where “and” joins values, the source holds several entries; their conditions need not be identical. Equal values may be shown once.
